In PubChem BioAssay AID743255 (National Center for Advancing Translational Sciences (NCATS), 2014):
In all, about 390,000 compounds went through this assay and about 910 (0.23%) were called active. The shares of active, inactive and inconclusive entries below differ from those in the screen. Calls come from the whole dose curve; as a rule, active = well fitted inhibition curve with a large enough effect; inconclusive = small, poorly fitted or top-dose-only effect; inactive = no such curve, though single readings can be large or run the other way. Potencies of inconclusive entries are doubtful fits and often do not repeat.

By UniProt entry, the sequences of proteins in these tests, tags left out. Where a name states a change or a piece, a line headed by the entry shows the natural chain unless it says otherwise.
UniProt O94782: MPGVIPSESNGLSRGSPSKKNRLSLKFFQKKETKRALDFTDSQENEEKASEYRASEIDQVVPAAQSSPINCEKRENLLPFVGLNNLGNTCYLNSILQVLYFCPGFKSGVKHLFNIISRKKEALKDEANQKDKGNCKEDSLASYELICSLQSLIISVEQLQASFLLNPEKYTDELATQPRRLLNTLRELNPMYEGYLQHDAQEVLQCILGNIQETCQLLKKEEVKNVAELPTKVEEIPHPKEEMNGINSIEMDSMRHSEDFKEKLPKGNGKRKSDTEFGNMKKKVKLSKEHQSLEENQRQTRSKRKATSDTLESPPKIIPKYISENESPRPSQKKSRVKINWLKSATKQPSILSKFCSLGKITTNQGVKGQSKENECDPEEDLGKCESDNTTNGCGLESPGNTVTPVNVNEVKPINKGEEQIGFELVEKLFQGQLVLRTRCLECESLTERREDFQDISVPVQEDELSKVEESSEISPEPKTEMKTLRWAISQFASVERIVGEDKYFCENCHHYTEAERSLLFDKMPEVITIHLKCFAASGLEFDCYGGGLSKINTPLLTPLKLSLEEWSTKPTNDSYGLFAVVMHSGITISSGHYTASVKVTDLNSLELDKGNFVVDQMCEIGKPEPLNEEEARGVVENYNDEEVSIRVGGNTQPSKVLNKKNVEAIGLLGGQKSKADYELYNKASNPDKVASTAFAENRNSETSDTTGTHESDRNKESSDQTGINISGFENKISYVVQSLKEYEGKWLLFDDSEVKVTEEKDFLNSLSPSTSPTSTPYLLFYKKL

What follows are molecules tested against Ubiquitin carboxyl-terminal hydrolase 1 (Homo sapiens) (UniProt O94782) (assay: Inhibitors of USP1/UAF1: Primary Screen). Settings: recombinant USP1/UAF1, Ub-Rhodamine cleavage fluorescence; series mostly up to 57.1 µM.
Outline: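 USP1/UAF1 complex (1 nM) preincubated 15 min at room temperature with compound, then Ub-Rho substrate (150 nM final) added. Kinetic fluorescence at 480/540 nm over 6 reads at 60 s intervals; 50 mM HEPES pH 7.8, 0.5 mM EDTA, 0.1 mg/ml BSA, 1 mM TCEP, 0.01% Tween-20.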
Note: nearly all actives have a fitted effect of over 60% in size.
Potency is the fitted concentration of half-maximal effect.

Potency, inactive:
Cn1c(-c2cccc(F)c2)nc2c1c(=O)[nH]c(=O)n2Cc1ccccc1
COc1ccc(S(=O)(=O)NCc2cccn2Cc2cc(C)ccc2C)cc1OC
CC(=O)c1ccc(-c2ccc(C(=O)NCC3CCCO3)o2)cc1 (centres undefined)
Cc1ccc(C)c(CN2C(=O)c3ccccc3S(=O)c3ccc(C(=O)N4CCCCC4)cc32)c1 (centres undefined)
Cc1cccc(C(=O)NC(=S)NNC(=O)Cc2ccccc2)c1
Cc1ccc(-c2nc(N)s[n+]2-c2ccccc2)cc1
COc1ccc(C2CC(C(F)(F)F)n3ncc(C(=O)Nc4cccc(O)c4)c3N2)cc1OC (centres undefined)
CC(=O)Nc1ccc(NCc2cccs2)cc1
CN1CCC(N(CCc2ccccc2)C(=O)CCC(=O)O)CC1
COc1ccc(OCC(=O)NCc2ccc3c(c2)CCN3C(=O)c2cccc(C)c2)cc1
CC1(c2ccc(OCC#N)cc2)C=C(c2ccc(OCC#N)cc2)n2nc(C(F)(F)F)nc2N1 (centres undefined)
COC(=O)c1oc2ccc(Br)cc2c1NC(=O)CN1CCN(C)CC1
CCOC(=O)c1sc(N(Cc2ccccc2)C(=O)CCl)nc1C
O=C1Nc2cc(S(=O)(=O)N3CCCC3)ccc2N2CCCC12 (centres undefined)
Cc1cccc(N(CC(=O)NCc2ccccc2)S(C)(=O)=O)c1C
O=C(CCNC(=O)c1ccccc1Cl)N/N=C\c1ccc(O)cc1
CCCN1CC=C2C(C#N)=C(N)C(C#N)(C#N)C(c3cccc(OC)c3OC)C2C1 (centres undefined)
COc1ccc(-n2ccnc(SCC(=O)NCc3ccc(C)cc3)c2=O)cc1Cl
Cn1nnnc1SCCCNCc1cc(Br)ccc1OCc1ccccc1
CC(=O)Nc1ccc(S(=O)(=O)NNC(=O)c2ccc([N+](=O)[O-])cc2)cc1
O=C(NCc1ccccn1)C(=O)N/N=C/c1ccc2c(c1)OCO2
COC(=O)[C@@]1(C)[C@H]2C(=O)N(Cc3ccccc3)C(=O)[C@H]2[C@H]2CN=C(SC)N21
COc1ccc(C(=O)Nc2ccc(NC(=O)c3cccs3)cn2)cc1
Cc1ccc2c(Sc3ccccc3)c(C(=O)NCc3ccccc3F)[nH]c2c1

Potency, active:
COc1ccc(CN=Cc2[nH]c3ccc(Br)c(Cl)c3c2O)cc1 14.1 µM
N#C/C(=C\c1ccc(N2CCOCC2)o1)c1nc2ccccc2[nH]1 25.1 µM

Potency, inconclusive:
COc1ccc(-c2cc(-c3nc(-c4cc(OC)c(OC)c(OC)c4)no3)[nH]n2)c(OC)c1 14.1 µM [inhibitor, partial curve]
CCOc1ccc(C(=O)Nc2ccc(OCc3cc(=O)n4cccc(C)c4n3)cc2)cc1 100 µM [inhibitor, partial curve]
COc1ccc(S(=O)(=O)n2nc(-c3ccco3)nc2NCc2ccc(C(C)C)cc2)cc1 1 µM [inhibitor, partial curve]
O=C(COC(=O)c1ccc([N+](=O)[O-])o1)Nc1ccc(Br)cc1F 35.5 µM [inhibitor, partial curve]
Cc1sc(NC(=O)CSc2nnc(N)s2)c(C#N)c1C 5.62 µM [inhibitor, single point]
O=c1[nH]c(C2CCCN(S(=O)(=O)c3ccccc3)C2)nc2c1nnn2Cc1ccccc1Br (centres undefined) 7.94 µM [inhibitor, partial curve, poor fit]
Cc1cccc(-n2ncc3c(NNC(=O)c4ccccc4Cl)ncnc32)c1 50.1 µM [inhibitor, partial curve, poor fit]
Cc1nn(C)cc1S(=O)(=O)N1CCN(Cc2ccc(F)cc2Cl)CC1 31.6 µM [inhibitor, partial curve, poor fit]
CN1CCOC1c1ccc(C2OCCN2C)cc1 (centres undefined) 31.6 µM [inhibitor, partial curve]
CCc1nc(SCC(=O)Nc2nnc(CC)s2)c2c(C)c(C)sc2n1 0.282 µM [inhibitor, full curve, poor fit]
CCOc1cc(C(=O)OCc2ccc(C(=O)OC)o2)cc(Br)c1OC 35.5 µM [inhibitor, partial curve]
Cc1cc(C)c(NC(=O)c2cccs2)c(C)c1NC(=O)c1cccs1 20 µM [inhibitor, partial curve]
CC(C)c1ccc(C2NC(=O)c3c(sc4c3CCN(C)C4)N2)cc1 (centres undefined) 56.2 µM [inhibitor, partial curve, poor fit]
COc1ccccc1/C=C/c1ccc2cccc(O)c2n1 25.1 µM [inhibitor, partial curve]
COC(=O)c1c(N)n(-c2ccc(NC(C)=O)cc2)c2nc3ccccc3nc12 20 µM [inhibitor, partial curve]
Cn1cccc1-c1cc2n(n1)CCC(=O)N2CCCC(=O)NCc1cccc(Cl)c1 126 µM [inhibitor, partial curve, poor fit]
CCOc1ccc(NS(=O)(=O)c2c(C)nc3sc(CC)nn3c2=O)cc1 5.01 µM [inhibitor, partial curve]
COc1ccc(-c2csc(Nc3ccc(S(=O)(=O)Nc4cc(C)on4)cc3)n2)cc1C 39.8 µM [inhibitor, partial curve]
CCOC(=O)/C(=N\Nc1cc(C(F)(F)F)ccc1Cl)N(CC)CC 31.6 µM [inhibitor, partial curve]
CC1(C)CC(=O)c2sc(NC(=O)c3ccco3)nc2C1 1 µM [inhibitor, full curve, poor fit]
CCOC(=O)N1CCN(C(=O)c2cc3c(=O)n4cccc(C)c4nc3s2)CC1 79.4 µM [inhibitor, partial curve, poor fit]
COc1cccc(C=Nc2ccc(N3CCOCC3)cc2)c1O 44.7 µM [inhibitor, partial curve]
CC1(C)Cc2c(sc3ncnc(NN)c23)CO1 35.5 µM [inhibitor, partial curve]
N#CC1=C2N=C(N)c3c(sc4c3CCCCC4)N2C2=C(C(=O)CCC2)C1c1ccccc1 (centres undefined) 39.8 µM [inhibitor, partial curve, poor fit]
CC1CC(C)CN(C(=O)COC(=O)c2ccc([N+](=O)[O-])o2)C1 (centres undefined) 44.7 µM [inhibitor, partial curve]
COc1ccc(-c2cc(OC(=O)c3ccccc3C)c3c(C)oc(C)c3c(=O)c2)cc1 3.98 µM [inhibitor, full curve, poor fit]
CC(NC(=O)c1ccncc1)C(c1cccs1)N1CCOCC1 (centres undefined) 0.562 µM [inhibitor, full curve, poor fit]
COc1ccc(NC(=O)C(c2ccccc2)N2Cc3ccccc3C2=O)cc1 (centres undefined) 35.5 µM [inhibitor, single point]
COc1ccc(Cc2noc(CN3CCCN(Cc4ccc(F)cc4)CC3)n2)cc1OC 0.794 µM [inhibitor, full curve, poor fit]
CCc1ccc(C2=CC(c3cccc(C)c3)n3c(nc4ccccc43)N2)cc1 (centres undefined) 39.8 µM [inhibitor, partial curve, poor fit]
O=C(N/C(=C\c1ccccc1)C(=O)N1CCCCCC1)c1ccccc1 0.282 µM [inhibitor, full curve, poor fit]
Cc1ccccc1OCCn1cc(C(=O)C2CCCCC2)c2ccccc21 0.251 µM [inhibitor, full curve, poor fit]
CCCCN(C)CC(O)Cn1cc(/C=C/C(=O)c2cccs2)c2ccccc21 (centres undefined) 50.1 µM [inhibitor, partial curve]
O=C(COc1ccc(Cl)cc1Cl)Nc1ccc(CN2CCOCC2)cc1 15.8 µM [inhibitor, partial curve, poor fit]
CC1CCCCN1Cc1ccc(N(C)C)cc1 (centres undefined) 2.82 µM [inhibitor, full curve]
CCCCSCCCNC(=O)C1CCN(Cc2nc(-c3ccc(CC)cc3)oc2C)CC1 31.6 µM [inhibitor, partial curve, poor fit]
CC(C)NC1=C(Cl)C(=O)c2ccccc2C1=O 35.5 µM [inhibitor, partial curve]
C[C@H](NC(=O)c1nc[nH]c1C(=O)N1CCN(C(=O)OC(C)(C)C)CC1)C(=O)OCc1ccccc1 50.1 µM [inhibitor, partial curve, poor fit]
COc1ccc(C)cc1NC(=O)C(NS(=O)(=O)c1cccs1)c1ccccc1 (centres undefined) 0.126 µM [inhibitor, full curve, poor fit]
Clc1cccc(-c2ccc(/C=N/n3cnnc3)o2)c1 28.2 µM [inhibitor, single point]
CCOc1ccccc1NC(=O)CSc1nc2ccccc2nc1Cc1ccc(C)cc1 141 µM [inhibitor, partial curve]
CCNC(=O)/C=C1\NC(C)(C)Cc2c1ccc1ccccc21 22.4 µM [inhibitor, partial curve]
Cc1ccc(CCNC(=O)CN2C(=O)COc3ccc(S(=O)(=O)N4CCCC4)cc32)cc1 0.251 µM [inhibitor, full curve, poor fit]

For convenience, part of the list above:
Potency, inconclusive:
COc1ccc(-c2cc(-c3nc(-c4cc(OC)c(OC)c(OC)c4)no3)[nH]n2)c(OC)c1 14.1 µM [inhibitor, partial curve]
CCOc1ccc(C(=O)Nc2ccc(OCc3cc(=O)n4cccc(C)c4n3)cc2)cc1 100 µM [inhibitor, partial curve]
COc1ccc(S(=O)(=O)n2nc(-c3ccco3)nc2NCc2ccc(C(C)C)cc2)cc1 1 µM [inhibitor, partial curve]
O=C(COC(=O)c1ccc([N+](=O)[O-])o1)Nc1ccc(Br)cc1F 35.5 µM [inhibitor, partial curve]
